Experimental data from the supplement of paper PMC4604168 (melanoma cell lines).
The list shows a part of the results. Single values are uncertain, as repeats are few or missing.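 Imaging used 1,536-well plates; nuclei positive for cleaved PARP by antibody were divided by total DNA-stained nuclei to yield the apoptosis fraction. Doses for screening kept most cells viable, and cell lines differ markedly in resting and induced cleaved-PARP levels.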

System: WM451Lu
Experiment: cleaved PARP positive nuclei fraction relative to DMSO control; melanoma cells; higher = more apoptosis
Conditions: library dose: low library concentration; 72 h

Row | Structure (SMILES) | cleaved PARP positive nuclei fraction [%]
1 | COc1ccc(C2=N[C@@H](c3ccc(Cl)cc3)[C@@H](c3ccc(Cl)cc3)N2C(=O)N2CCNC(=O)C2)c(OC(C)C)c1 [Nutlin-3] + Cc1cc(SCc2sc(-c3ccc(C(F)(F)F)c(F)c3)nc2C)ccc1OCC(=O)O [GW0742] (first compound 0.1 µM, partner dose 2 µM) | 285
2 | Cn1cc(C2=C(c3cn(C4CCN(Cc5ccccn5)CC4)c4ccccc34)C(=O)NC2=O)c2ccccc21 [Enzastaurin] + O=C(Nc1cccc(Cl)c1)Nc1ncc(CCNc2ncnc3ccsc23)s1 [SNS314] (first compound 0.8 µM, partner dose 0.0008 µM) | 53.7
3 | COc1cc(Nc2ncc(F)c(Nc3ccc4c(n3)NC(=O)C(C)(C)O4)n2)cc(OC)c1OC [Tamatinib] + O=C(Oc1ccc([N+](=O)[O-])cc1)N1CCC(C(O)(c2ccc3c(c2)OCO3)c2ccc3c(c2)OCO3)CC1 [JZL184] (first compound 0.4 µM, partner dose 1 µM) | 71.9
4 | Cn1cc(C2=C(c3cn(C4CCN(Cc5ccccn5)CC4)c4ccccc34)C(=O)NC2=O)c2ccccc21 [Enzastaurin] + COc1cc(N2CCC(N3CCN(C)CC3)CC2)ccc1Nc1ncc(Cl)c(Nc2ccccc2S(=O)(=O)C(C)C)n1 [NVP-TAE684] (first compound 0.8 µM, partner dose 0.08 µM) | 148
5 | N.N.[Cl][Pt][Cl] [cisplatin] + O=C(Oc1ccc([N+](=O)[O-])cc1)N1CCC(C(O)(c2ccc3c(c2)OCO3)c2ccc3c(c2)OCO3)CC1 [JZL184] (first compound 1.6 µM, partner dose 1 µM) | 72.6
6 | Cn1cc(C2=C(c3cn(C4CCN(Cc5ccccn5)CC4)c4ccccc34)C(=O)NC2=O)c2ccccc21 [Enzastaurin] + COc1ccc(Cl)c(Nc2nc3ccccc3nc2NS(=O)(=O)c2cccc(NC(=O)C(C)(C)N)c2)c1 [XL147] (first compound 0.8 µM, partner dose 0.8 µM) | 180
7 | Nc1ncn([C@H]2C[C@H](O)[C@@H](CO)O2)c(=O)n1 [decitabine] + O=C(Oc1ccc([N+](=O)[O-])cc1)N1CCC(C(O)(c2ccc3c(c2)OCO3)c2ccc3c(c2)OCO3)CC1 [JZL184] (first compound 0.1 µM, partner dose 1 µM) | 47.5
8 | Cc1cc(SCc2sc(-c3ccc(C(F)(F)F)c(F)c3)nc2C)ccc1OCC(=O)O + Oc1cc(-c2nc(-c3ccccc3)[nH]c2-c2ccncc2)ccc1Cl [L779450] (first compound 2 µM, partner dose 0.2 µM) | 32.6
9 | C[C@]12O[C@H](C[C@]1(O)CO)n1c3ccccc3c3c4c(c5c6ccccc6n2c5c31)CNC4=O [Lestaurtinib] + CC(C)CCN1c2nc(Nc3cc(F)c(O)c(F)c3)ncc2N(C)C(=O)C1C [BID1870] (first compound 0.004 µM, partner dose 0.2 µM) | 104
10 | N#CC[C@H](C1CCCC1)n1cc(-c2ncnc3[nH]ccc23)cn1 [ruxolitinib] + C[C@]12O[C@H](C[C@]1(O)CO)n1c3ccccc3c3c4c(c5c6ccccc6n2c5c31)CNC4=O [Lestaurtinib] (first compound 1 µM, partner dose 0.004 µM) | 57.8
11 | C=C(c1ccc(C(=O)O)cc1)c1cc2c(cc1C)C(C)(C)CCC2(C)C [Bexarotene] + O=C(Oc1ccc([N+](=O)[O-])cc1)N1CCC(C(O)(c2ccc3c(c2)OCO3)c2ccc3c(c2)OCO3)CC1 [JZL184] (first compound 2 µM, partner dose 1 µM) | 232
12 | COc1ccc(-c2ccc3c(N4CCOCC4)nc(N4C[C@@H](C)O[C@@H](C)C4)nc3n2)cc1CO + O=C(Oc1ccc([N+](=O)[O-])cc1)N1CCC(C(O)(c2ccc3c(c2)OCO3)c2ccc3c(c2)OCO3)CC1 [JZL184] (first compound 0.02 µM, partner dose 1 µM) | 115
13 | C[C@@H](Oc1cc(-c2cnn(C3CCNCC3)c2)cnc1N)c1c(Cl)ccc(F)c1Cl [Crizotinib] + Cc1cc(SCc2sc(-c3ccc(C(F)(F)F)c(F)c3)nc2C)ccc1OCC(=O)O [GW0742] (first compound 0.2 µM, partner dose 2 µM) | 58.6
14 | Cn1nnc2c(C(N)=O)ncn2c1=O [temozolomide] + C/C(O)=C(\C#N)C(=O)Nc1cc(Br)ccc1Br [LFM-A13] (first compound 2 µM, partner dose 2 µM) | 170
15 | CNC(=O)c1cc(Oc2ccc(NC(=O)Nc3ccc(Cl)c(C(F)(F)F)c3)cc2)ccn1 [sorafenib] + Cc1cc(SCc2sc(-c3ccc(C(F)(F)F)c(F)c3)nc2C)ccc1OCC(=O)O [GW0742] (first compound 0.4 µM, partner dose 2 µM) | 140
16 | Cn1cnc2c(F)c(Nc3ccc(Br)cc3Cl)c(C(=O)NOCCO)cc21 [selumetinib] + C[C@]12O[C@H](C[C@]1(O)CO)n1c3ccccc3c3c4c(c5c6ccccc6n2c5c31)CNC4=O [Lestaurtinib] (first compound 0.015 µM, partner dose 0.004 µM) | 88.9
17 | CS(=O)(=O)CCNCc1ccc(-c2ccc3ncnc(Nc4ccc(OCc5cccc(F)c5)c(Cl)c4)c3c2)o1 [lapatinib] + O=C(Oc1ccc([N+](=O)[O-])cc1)N1CCC(C(O)(c2ccc3c(c2)OCO3)c2ccc3c(c2)OCO3)CC1 [JZL184] (first compound 0.8 µM, partner dose 1 µM) | 61.4
18 | Nc1ccn([C@@H]2O[C@H](CO)[C@@H](O)C2(F)F)c(=O)n1 [gemcitabine] + Cc1cc(SCc2sc(-c3ccc(C(F)(F)F)c(F)c3)nc2C)ccc1OCC(=O)O [GW0742] (first compound 0.0004 µM, partner dose 2 µM) | 70.3
19 | CS(=O)(=O)CCNCc1ccc(-c2ccc3ncnc(Nc4ccc(OCc5cccc(F)c5)c(Cl)c4)c3c2)o1 [lapatinib] + C[As](C)SC[C@H](NC(=O)CC[C@H](N)C(=O)O)C(=O)NCC(=O)O [Darinaparsin] (first compound 0.8 µM, partner dose 0.4 µM) | 96.8
20 | C[C@]1(c2nc3c(C(N)=O)cccc3[nH]2)CCCN1 [Veliparib] + Cc1cc(SCc2sc(-c3ccc(C(F)(F)F)c(F)c3)nc2C)ccc1OCC(=O)O [GW0742] (first compound 1.4 µM, partner dose 2 µM) | 60.9
21 | CN1CCN(c2ccc3nc(-c4c(N)c5c(F)cccc5[nH]c4=O)[nH]c3c2)CC1 [Dovitinib] + O=C(Oc1ccc([N+](=O)[O-])cc1)N1CCC(C(O)(c2ccc3c(c2)OCO3)c2ccc3c(c2)OCO3)CC1 [JZL184] (first compound 0.1 µM, partner dose 1 µM) | 136
22 | COC(=O)c1sccc1S(=O)(=O)Nc1ccc(Nc2ccccc2)cc1OC + C/C(O)=C(\C#N)C(=O)Nc1cc(Br)ccc1Br [LFM-A13] (first compound 1 µM, partner dose 2 µM) | 131
23 | Cc1cc(Nc2cc(N3CCN(C)CC3)nc(Sc3ccc(NC(=O)C4CC4)cc3)n2)n[nH]1 [Tozasertib] + O=C(Oc1ccc([N+](=O)[O-])cc1)N1CCC(C(O)(c2ccc3c(c2)OCO3)c2ccc3c(c2)OCO3)CC1 [JZL184] (first compound 0.006 µM, partner dose 1 µM) | 38.4
24 | CCN(CC)CCCCNc1ncc2cc(-c3cc(OC)cc(OC)c3)c(NC(=O)NC(C)(C)C)nc2n1 + O=C(Oc1ccc([N+](=O)[O-])cc1)N1CCC(C(O)(c2ccc3c(c2)OCO3)c2ccc3c(c2)OCO3)CC1 [JZL184] (first compound 0.1 µM, partner dose 1 µM) | 89.5
25 | N.N.[Cl][Pt][Cl] [cisplatin] + CC(=O)c1c(C)c2cnc(Nc3ccc(N4CCNCC4)cn3)nc2n(C2CCCC2)c1=O [palbociclib] (first compound 1.6 µM, partner dose 0.04 µM) | 105
26 | C[C@]12O[C@H](C[C@]1(O)CO)n1c3ccccc3c3c4c(c5c6ccccc6n2c5c31)CNC4=O [Lestaurtinib] + C#Cc1cccc(Nc2ncnc3cc(OCCOC)c(OCCOC)cc23)c1 [erlotinib] (first compound 0.004 µM, partner dose 0.8 µM) | 76.3
27 | Cn1cc(C2=C(c3cn(C4CCN(Cc5ccccn5)CC4)c4ccccc34)C(=O)NC2=O)c2ccccc21 [Enzastaurin] + CNC(=O)c1cc(Oc2ccc(NC(=O)Nc3ccc(Cl)c(C(F)(F)F)c3)cc2)ccn1 [sorafenib] (first compound 0.8 µM, partner dose 0.4 µM) | 80
28 | OCc1c[nH]c2ccccc12 [Indole-3-carbinol] + C[As](C)SC[C@H](NC(=O)CC[C@H](N)C(=O)O)C(=O)NCC(=O)O [Darinaparsin] (first compound 0.8 µM, partner dose 0.4 µM) | 45.3
29 | C[C@]12O[C@H](C[C@]1(O)CO)n1c3ccccc3c3c4c(c5c6ccccc6n2c5c31)CNC4=O [Lestaurtinib] + CS(=O)(=O)CCNCc1ccc(-c2ccc3ncnc(Nc4ccc(OCc5cccc(F)c5)c(Cl)c4)c3c2)o1 [lapatinib] (first compound 0.004 µM, partner dose 0.8 µM) | 82

At a glance, part of the list above.
Row | Structure (SMILES) | cleaved PARP positive nuclei fraction [%]
21 | CN1CCN(c2ccc3nc(-c4c(N)c5c(F)cccc5[nH]c4=O)[nH]c3c2)CC1 [Dovitinib] + O=C(Oc1ccc([N+](=O)[O-])cc1)N1CCC(C(O)(c2ccc3c(c2)OCO3)c2ccc3c(c2)OCO3)CC1 [JZL184] (first compound 0.1 µM, partner dose 1 µM) | 136
22 | COC(=O)c1sccc1S(=O)(=O)Nc1ccc(Nc2ccccc2)cc1OC + C/C(O)=C(\C#N)C(=O)Nc1cc(Br)ccc1Br [LFM-A13] (first compound 1 µM, partner dose 2 µM) | 131
